Laboratory results as given in the supplement of paper PMC10849652.
Some of the results follow.

Amino acid sequences for entries named in this document (tags omitted). A change or cut given only in a name is not applied to a line headed by its entry.
UniProt Q15776: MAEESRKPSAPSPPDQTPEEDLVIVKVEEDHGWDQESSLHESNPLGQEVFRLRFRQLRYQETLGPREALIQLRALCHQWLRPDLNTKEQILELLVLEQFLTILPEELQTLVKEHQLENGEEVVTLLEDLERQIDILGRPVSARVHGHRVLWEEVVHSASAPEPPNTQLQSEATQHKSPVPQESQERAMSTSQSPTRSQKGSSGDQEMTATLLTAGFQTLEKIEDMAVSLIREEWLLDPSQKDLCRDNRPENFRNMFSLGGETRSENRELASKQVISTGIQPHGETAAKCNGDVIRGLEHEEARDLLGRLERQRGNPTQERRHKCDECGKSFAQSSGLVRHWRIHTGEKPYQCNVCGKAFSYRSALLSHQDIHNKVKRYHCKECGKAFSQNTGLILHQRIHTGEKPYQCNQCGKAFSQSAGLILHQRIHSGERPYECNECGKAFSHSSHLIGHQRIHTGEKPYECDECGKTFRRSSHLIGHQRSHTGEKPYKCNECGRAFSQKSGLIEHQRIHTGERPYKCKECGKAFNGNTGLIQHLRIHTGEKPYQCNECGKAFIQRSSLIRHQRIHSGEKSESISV
UniProt Q9NUE0: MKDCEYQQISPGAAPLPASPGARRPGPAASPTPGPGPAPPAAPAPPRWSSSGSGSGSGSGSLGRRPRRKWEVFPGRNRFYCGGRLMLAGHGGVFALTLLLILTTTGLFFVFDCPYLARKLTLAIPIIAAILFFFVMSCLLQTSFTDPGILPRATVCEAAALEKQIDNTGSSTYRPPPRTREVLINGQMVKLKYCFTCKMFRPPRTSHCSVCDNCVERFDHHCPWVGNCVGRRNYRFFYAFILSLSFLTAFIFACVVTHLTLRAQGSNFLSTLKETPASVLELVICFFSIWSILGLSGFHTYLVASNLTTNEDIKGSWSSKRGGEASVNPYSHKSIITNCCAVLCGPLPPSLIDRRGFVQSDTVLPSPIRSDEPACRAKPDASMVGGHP
UniProt O95365: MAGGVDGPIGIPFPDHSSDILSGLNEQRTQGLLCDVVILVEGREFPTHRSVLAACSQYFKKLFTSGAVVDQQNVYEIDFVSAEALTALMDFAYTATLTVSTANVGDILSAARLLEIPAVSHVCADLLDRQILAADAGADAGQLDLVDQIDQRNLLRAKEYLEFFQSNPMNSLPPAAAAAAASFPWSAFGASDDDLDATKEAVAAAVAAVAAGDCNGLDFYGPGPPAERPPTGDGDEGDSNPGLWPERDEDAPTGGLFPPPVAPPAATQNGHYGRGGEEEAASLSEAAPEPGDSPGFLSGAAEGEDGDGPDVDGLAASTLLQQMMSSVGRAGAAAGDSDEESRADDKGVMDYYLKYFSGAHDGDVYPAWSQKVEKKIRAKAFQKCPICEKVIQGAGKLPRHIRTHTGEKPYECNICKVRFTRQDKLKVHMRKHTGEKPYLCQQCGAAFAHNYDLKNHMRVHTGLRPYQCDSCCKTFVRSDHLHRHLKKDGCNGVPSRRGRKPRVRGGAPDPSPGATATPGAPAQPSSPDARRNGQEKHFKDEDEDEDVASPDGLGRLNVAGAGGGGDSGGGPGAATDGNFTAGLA
UniProt O43298: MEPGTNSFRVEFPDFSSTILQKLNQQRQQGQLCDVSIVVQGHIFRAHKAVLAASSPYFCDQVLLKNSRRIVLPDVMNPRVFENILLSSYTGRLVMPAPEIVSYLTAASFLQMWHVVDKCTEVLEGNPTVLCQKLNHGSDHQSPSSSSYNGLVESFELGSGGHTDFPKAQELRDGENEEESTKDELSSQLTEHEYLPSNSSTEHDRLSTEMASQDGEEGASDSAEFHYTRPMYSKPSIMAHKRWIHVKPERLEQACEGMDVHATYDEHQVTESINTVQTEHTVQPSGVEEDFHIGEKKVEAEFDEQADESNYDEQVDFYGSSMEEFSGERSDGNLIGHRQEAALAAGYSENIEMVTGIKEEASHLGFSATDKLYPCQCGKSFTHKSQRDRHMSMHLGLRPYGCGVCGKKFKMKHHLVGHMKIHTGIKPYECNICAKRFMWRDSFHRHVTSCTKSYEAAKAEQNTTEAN
UniProt Q7Z7L7: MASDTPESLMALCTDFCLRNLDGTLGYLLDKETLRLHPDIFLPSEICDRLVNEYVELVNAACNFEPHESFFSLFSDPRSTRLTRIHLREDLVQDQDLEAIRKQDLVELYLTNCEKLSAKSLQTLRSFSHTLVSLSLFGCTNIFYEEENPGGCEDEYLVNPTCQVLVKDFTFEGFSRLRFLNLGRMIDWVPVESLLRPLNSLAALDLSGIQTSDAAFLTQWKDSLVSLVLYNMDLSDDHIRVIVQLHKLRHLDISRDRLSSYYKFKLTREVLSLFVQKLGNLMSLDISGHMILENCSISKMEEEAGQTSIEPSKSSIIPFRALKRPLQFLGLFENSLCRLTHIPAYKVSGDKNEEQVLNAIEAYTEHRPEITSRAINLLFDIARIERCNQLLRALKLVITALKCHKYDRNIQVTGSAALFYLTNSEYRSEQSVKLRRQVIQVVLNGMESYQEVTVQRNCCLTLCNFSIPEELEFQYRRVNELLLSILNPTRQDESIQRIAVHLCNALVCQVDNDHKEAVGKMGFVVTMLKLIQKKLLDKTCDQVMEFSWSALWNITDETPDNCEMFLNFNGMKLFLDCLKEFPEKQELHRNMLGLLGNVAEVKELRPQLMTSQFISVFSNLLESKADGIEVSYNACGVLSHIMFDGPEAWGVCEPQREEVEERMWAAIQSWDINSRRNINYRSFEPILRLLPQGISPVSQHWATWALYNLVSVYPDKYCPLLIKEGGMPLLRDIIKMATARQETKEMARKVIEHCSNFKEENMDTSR
UniProt Q9ULJ3: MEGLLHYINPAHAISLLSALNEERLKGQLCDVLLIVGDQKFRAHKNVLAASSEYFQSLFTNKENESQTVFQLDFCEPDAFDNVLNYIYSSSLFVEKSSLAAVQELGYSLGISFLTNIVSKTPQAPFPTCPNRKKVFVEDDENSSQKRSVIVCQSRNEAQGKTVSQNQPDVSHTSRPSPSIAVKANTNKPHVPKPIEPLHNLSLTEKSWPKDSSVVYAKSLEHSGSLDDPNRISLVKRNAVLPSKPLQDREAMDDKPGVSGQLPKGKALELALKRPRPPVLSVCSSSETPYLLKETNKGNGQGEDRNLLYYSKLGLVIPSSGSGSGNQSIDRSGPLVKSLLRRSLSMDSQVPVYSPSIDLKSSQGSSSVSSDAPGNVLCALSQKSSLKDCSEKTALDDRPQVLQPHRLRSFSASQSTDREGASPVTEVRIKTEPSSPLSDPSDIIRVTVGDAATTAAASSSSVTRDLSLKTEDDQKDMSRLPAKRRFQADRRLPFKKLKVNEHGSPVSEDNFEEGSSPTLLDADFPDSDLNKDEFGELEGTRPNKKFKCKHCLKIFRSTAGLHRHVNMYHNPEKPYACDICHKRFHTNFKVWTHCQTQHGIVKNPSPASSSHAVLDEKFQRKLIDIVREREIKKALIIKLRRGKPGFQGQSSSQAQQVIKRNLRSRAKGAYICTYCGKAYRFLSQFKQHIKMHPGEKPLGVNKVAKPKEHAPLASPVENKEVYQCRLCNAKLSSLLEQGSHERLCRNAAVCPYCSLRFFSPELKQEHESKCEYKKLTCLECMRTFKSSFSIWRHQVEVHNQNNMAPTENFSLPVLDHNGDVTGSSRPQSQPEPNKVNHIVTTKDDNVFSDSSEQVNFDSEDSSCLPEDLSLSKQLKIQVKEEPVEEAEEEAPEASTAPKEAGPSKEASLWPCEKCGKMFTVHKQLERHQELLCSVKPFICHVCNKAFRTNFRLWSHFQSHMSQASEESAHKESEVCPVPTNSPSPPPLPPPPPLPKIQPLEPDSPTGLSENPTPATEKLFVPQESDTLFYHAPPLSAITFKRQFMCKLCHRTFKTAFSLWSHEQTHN
UniProt Q9UIJ5: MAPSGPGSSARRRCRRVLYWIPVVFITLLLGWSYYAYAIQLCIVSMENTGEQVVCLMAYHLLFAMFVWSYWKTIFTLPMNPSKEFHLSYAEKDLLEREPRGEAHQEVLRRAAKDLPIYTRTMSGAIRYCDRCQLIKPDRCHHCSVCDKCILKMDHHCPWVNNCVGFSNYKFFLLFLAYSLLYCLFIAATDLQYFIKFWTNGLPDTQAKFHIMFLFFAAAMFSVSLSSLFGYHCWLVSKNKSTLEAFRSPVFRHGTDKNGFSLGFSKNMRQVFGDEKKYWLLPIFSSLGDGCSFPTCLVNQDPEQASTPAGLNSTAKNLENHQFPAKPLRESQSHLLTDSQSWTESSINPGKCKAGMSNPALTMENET
UniProt Q9H6R6: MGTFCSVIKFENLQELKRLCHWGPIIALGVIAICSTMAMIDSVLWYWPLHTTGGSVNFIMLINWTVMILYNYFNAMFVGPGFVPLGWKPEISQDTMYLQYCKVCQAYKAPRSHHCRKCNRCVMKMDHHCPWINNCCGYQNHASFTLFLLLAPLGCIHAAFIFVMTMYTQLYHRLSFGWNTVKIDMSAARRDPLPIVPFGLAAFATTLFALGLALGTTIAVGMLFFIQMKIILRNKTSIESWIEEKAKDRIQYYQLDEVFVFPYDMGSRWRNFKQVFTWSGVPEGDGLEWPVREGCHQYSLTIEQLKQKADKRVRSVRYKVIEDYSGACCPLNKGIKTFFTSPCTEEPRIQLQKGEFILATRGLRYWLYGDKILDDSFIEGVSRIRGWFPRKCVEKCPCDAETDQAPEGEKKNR
UniProt Q9Y397: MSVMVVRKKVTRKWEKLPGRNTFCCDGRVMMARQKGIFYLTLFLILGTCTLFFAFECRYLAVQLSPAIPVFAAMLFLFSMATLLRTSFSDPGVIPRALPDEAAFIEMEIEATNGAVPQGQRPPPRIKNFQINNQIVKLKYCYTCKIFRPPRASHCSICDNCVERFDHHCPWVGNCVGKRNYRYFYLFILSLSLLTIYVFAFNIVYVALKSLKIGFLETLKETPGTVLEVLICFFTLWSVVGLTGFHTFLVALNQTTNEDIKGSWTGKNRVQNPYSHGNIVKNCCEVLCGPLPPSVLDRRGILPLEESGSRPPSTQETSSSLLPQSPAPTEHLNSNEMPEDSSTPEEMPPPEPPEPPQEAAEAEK
UniProt Q9HCC9: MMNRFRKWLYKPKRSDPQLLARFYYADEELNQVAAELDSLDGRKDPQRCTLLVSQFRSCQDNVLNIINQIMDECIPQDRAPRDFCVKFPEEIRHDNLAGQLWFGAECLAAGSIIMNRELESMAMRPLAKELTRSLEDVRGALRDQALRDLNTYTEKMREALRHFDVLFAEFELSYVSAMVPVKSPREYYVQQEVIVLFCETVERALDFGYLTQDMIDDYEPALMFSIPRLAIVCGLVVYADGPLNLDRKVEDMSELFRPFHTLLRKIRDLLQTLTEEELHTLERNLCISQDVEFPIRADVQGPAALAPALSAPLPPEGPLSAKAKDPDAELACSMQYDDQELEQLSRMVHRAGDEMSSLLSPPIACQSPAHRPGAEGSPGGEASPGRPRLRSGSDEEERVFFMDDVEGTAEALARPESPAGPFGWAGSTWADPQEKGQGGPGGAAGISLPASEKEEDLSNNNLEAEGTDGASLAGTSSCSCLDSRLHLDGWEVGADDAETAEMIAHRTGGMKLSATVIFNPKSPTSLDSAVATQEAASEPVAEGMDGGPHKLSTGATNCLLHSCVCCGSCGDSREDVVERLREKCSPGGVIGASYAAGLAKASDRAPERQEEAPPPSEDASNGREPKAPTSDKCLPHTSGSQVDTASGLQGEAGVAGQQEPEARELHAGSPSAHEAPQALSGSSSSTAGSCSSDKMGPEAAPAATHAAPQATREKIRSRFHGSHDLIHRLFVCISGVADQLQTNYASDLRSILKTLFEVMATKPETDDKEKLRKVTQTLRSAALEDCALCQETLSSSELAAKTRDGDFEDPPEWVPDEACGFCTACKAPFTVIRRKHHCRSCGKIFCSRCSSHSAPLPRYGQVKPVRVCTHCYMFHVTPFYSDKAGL
UniProt Q9H5J0: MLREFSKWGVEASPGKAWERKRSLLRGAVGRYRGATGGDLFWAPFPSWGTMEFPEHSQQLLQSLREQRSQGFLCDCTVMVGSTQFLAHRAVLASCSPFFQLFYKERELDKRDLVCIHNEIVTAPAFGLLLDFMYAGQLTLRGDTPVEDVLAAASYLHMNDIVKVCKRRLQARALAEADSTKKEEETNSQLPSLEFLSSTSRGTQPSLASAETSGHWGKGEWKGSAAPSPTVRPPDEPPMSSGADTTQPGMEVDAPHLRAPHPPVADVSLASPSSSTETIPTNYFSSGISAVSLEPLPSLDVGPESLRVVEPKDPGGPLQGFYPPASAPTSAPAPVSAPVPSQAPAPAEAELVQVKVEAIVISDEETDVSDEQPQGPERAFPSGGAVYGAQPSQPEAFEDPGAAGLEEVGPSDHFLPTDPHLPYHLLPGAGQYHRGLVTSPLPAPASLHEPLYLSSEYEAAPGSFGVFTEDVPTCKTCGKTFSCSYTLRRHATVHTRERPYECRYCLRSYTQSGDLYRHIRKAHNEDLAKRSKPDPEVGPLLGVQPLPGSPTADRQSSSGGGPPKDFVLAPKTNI

How the values were obtained:
Assay in all cases: log2 fold change, soluble protein after heating vs DMSO (PISA); higher = thermal stabilisation; K562 cells, 10 uM, 30 min; active = over 0.2 and 3.5 SD of the protein, either way, in both replicates (recomputed)
[1] = compound: CC1=C(C=C(C=C1)NC(=O)C2=CC(=CC=C2)C(C)(C)C#N)NC3=CC4=C(C=C3)N=CN(C4=O)C
In short: (§1)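 K562 cells at 2×10^6 cells/mL were treated with 10 μM compound for 30 min. Aliquots were heated for 3 min across 48°C-58°C, pooled, and extracted in PBS with 0.5% NP-40 at 4°C; soluble protein was the supernatant after 21,000xg for 90 min. Soluble protein was quantified by TMTpro 16plex LC-MS/MS with channel sums equalised, and reported as log2 fold change in thermal stability against DMSO controls, with values from duplicates.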

[2] = compound: CC1=CC=C(C=C1)SC2=C3C=C(SC3=CN=C2)C(=O)N
In short: as §1

[3] = compound: CCCS(=O)(=O)Nc1ccc(F)c(C(=O)c2c[nH]c3ncc(Cl)cc23)c1F
In short: as §1

[4] = compound: CCCc1cc(C)[nH]c(=O)c1CNC(=O)c1cc(-c2ccnc(N3CCN(C)CC3)c2)cc2c1cnn2C(C)C
In short: as §1

givinostat = compound: CCN(CC)Cc1ccc2cc(COC(=O)Nc3ccc(C(=O)NO)cc3)ccc2c1 [givinostat]
In short: as §1

barasertib = compound: CCN(CCCOc1ccc2c(Nc3cc(CC(=O)Nc4cccc(F)c4)[nH]n3)ncnc2c1)CCOP(=O)(O)O [barasertib]
In short: as §1

[5] = compound: CC[C@@H]1C(=O)N(C)c2cnc(Nc3ccc(C(=O)NC4CCN(C)CC4)cc3OC)nc2N1C1CCCC1
In short: as §1

volasertib = compound: CC[C@@H]1C(=O)N(C)c2cnc(Nc3ccc(C(=O)N[C@H]4CC[C@H](N5CCN(CC6CC6)CC5)CC4)cc3OC)nc2N1C(C)C [volasertib]
In short: as §1

[6] = compound: CC[C@H](C)N1C=C(C2=C(C=C(C=C21)C3=CN=C(C=C3)N4CCNCC4)C(=O)NCC5=C(C=C(NC5=O)C)C)C
In short: as §1

[7] = compound: CCn1c(C(=O)N(C2CC2)C2CC2)cc2c3c(ncn3C)c(Nc3cc(C)n(C)n3)nc21
In short: as §1

[8] = compound: CCn1cc(-c2ccnc3[nH]c(-c4cccc(CN(C)C)c4)cc23)c(-c2ccc(NC(=O)N(C)C)cc2)n1
In short: as §1

rosiglitazone = compound: CN(CCOC1=CC=C(C=C1)C[C@H]2C(=O)NC(=O)S2)C3=CC=CC=N3 (racemic) [rosiglitazone]
In short: as §1

[9] = compound: CN1C2=C(C3=C1C(=O)N(N=C3)CC4=CC(=CC=C4)N)SC(=C2)S(=O)C
In short: as §1

[10] = compound: CN1CCC(CNc2ccc3ncc(-c4cccc(OC(F)(F)F)c4)n3n2)CC1
In short: as §1

[11] = compound: CC1=C(C=C(C=C1)NC(=O)C2=CC(=CC=C2)N(C)C)NC(=O)C3=CC=C(C=C3)O
In short: as §1

Nexturastat A = compound: CCCCN(Cc1ccc(C(=O)NO)cc1)C(=O)Nc1ccccc1 [Nexturastat A]
In short: as §1

vemurafenib = compound: CCCS(=O)(=O)Nc1ccc(F)c(C(=O)c2c[nH]c3ncc(-c4ccc(Cl)cc4)cc23)c1F [vemurafenib]
In short: as §1

epoxomicin = compound: CC[C@H](C)[C@@H](C(=O)N[C@@H]([C@@H](C)O)C(=O)N[C@@H](CC(C)C)C(=O)[C@]1(CO1)C)NC(=O)[C@H]([C@@H](C)CC)N(C)C(=O)C [epoxomicin]
In short: as §1

[12] = compound: CN(C)CC(=O)Nc1ccc2[nH]c(=O)c3ccccc3c2c1
In short: as §1

[13] = compound: CC1=NC(=CC=C1)C2=C(N=C(N2)C(C)(C)C)C3=CC4=NC=CN=C4C=C3
In short: as §1

Measured: log2 fold change

XIRP2 isoform 8 (UniProt A4UGR9)
inactive: [1] -0.068 | [2] -0.117 | [3] -0.067 | [4] -0.024 | givinostat -0.109 | barasertib 0.024 | [5] -0.145 | volasertib 0.095 | [6] -0.048 | [7] -0.013 | [8] 0.096 | rosiglitazone -0.033 | [9] 0.064 | [10] 0.055

ZKSCAN8 (UniProt Q15776)
inactive: [1] 0.056 | [11] 0.001 | [2] -0.227 | Nexturastat A 0.248 | vemurafenib -0.258 | [3] -0.166 | [5] 0.034 | volasertib -0.027 | epoxomicin -0.184 | [8] 0.237 | [12] -0.028 | [9] 0.392 | [10] -0.136

ZDHHC18 (UniProt Q9NUE0)
inactive: [1] 0.007 | [11] 0.044 | [2] 0.173 | [13] -0.06 | Nexturastat A 0.028 | [3] 0.052 | [4] 0.065 | givinostat -0.039 | barasertib -0.107 | [5] 0.028 | volasertib -0.138 | [6] -0.128 | epoxomicin -0.007 | [7] -0.03 | [8] 0.017 | rosiglitazone 0.084 | [9] -0.278 | [10] 0.105

ZBTB7A (UniProt O95365)
inactive: [1] -0.046 | [11] 0.018 | [2] -0.016 | [13] 0.092 | Nexturastat A 0.023 | [3] -0.033 | givinostat 0.007 | barasertib -0.024 | [5] 0.082 | volasertib 0.208 | [6] 0.081 | epoxomicin -0.023 | [7] 0.056 | rosiglitazone 0.058 | [9] 0.224

ZBTB43 (UniProt O43298)
inactive: [1] 0.004 | [11] 0.141 | [13] -0.04 | Nexturastat A -0.203 | vemurafenib 0.044 | givinostat -0.006 | barasertib -0.105 | [5] -0.061 | [6] -0.187 | epoxomicin -0.054 | [8] 0.028 | [12] -0.07 | [9] 0.017 | [10] 0.032

ZER1 (UniProt Q7Z7L7)
inactive: [1] -0.041 | [11] -0.059 | [2] -0.085 | [13] -0.248 | Nexturastat A 0.012 | vemurafenib -0.033 | [3] -0.001 | [4] -0.125 | givinostat 0.117 | barasertib 0.034 | [5] -0.032 | volasertib 0.009 | [6] 0.064 | epoxomicin 0.048 | [8] -0.16 | [12] -0.099 | [9] 0.019 | [10] -0.172

ZBTB21 (UniProt Q9ULJ3)
inactive: [1] -0.03 | [11] 0.101 | [2] 0.008 | [13] -0.03 | Nexturastat A 0.106 | vemurafenib -0.032 | [3] 0.091 | [4] -0.008 | givinostat -0.045 | barasertib -0.043 | volasertib -0.063 | [6] 0.059 | epoxomicin -0.168 | [8] -0.073 | [12] 0.018 | [9] 0.049 | [10] -0.149

ZDHHC2 (UniProt Q9UIJ5)
inactive: [1] -0.095 | [11] -0.025 | [2] 0.017 | [13] 0.044 | [3] 0.015 | [4] 0.035 | barasertib -0.081 | [5] 0.013 | volasertib 0.063 | [6] 0.033 | [8] 0.031 | rosiglitazone 0.209 | [10] -0.023

ZDHHC6 (UniProt Q9H6R6)
inactive: [2] 0.034 | Nexturastat A -0.06 | [3] -0.048 | [5] -0.114 | volasertib -0.094 | epoxomicin -0.052 | [8] -0.292 | [10] 0.011

ZDHHC9 (UniProt Q9Y397)
inactive: [11] -0.07 | [8] -0.157 | [10] -0.047

ZFYVE28 (UniProt Q9HCC9)
inactive: [2] -0.043 | [13] 0.079 | [3] 0.052 | givinostat -0.001 | barasertib 0.053 | volasertib 0.033 | [7] -0.053 | rosiglitazone -0.091

ZBTB3 (UniProt Q9H5J0)
inactive: [11] 0 | [2] -0.046 | [13] 0.08 | vemurafenib 0.197 | [3] 0.197 | [4] -0.034 | givinostat -0.097 | barasertib -0.041 | [5] 0.112 | volasertib -0.119 | [6] -0.041 | [7] -0.069 | [8] 0.038 | [12] -0.021 | rosiglitazone 0.01 | [10] 0.001
